Test results as given in PMC7819943, “Rice protein-binding microarrays: a tool to detect cis-acting elements near promoter regions in rice”.
The other results are listed elsewhere or left out.

Protein sequences, listed by entry. Tags and fused reporters are not part of them.
UniProt Q0JBA9, entry or part of it: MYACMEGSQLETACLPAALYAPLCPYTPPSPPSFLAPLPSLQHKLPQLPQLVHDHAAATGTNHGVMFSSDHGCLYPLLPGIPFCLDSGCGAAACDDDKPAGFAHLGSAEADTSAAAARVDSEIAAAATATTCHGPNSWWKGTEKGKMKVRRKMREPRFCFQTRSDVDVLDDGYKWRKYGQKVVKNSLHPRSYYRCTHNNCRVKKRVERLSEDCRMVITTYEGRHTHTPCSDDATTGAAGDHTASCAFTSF

These sequences were tested against OsWRKY34 (Oryza sativa, UniProt Q0JBA9 1-250) (assay: protein-binding microarray (RPBM); PBS, 2% BSA, 51.3 ng/ul salmon testes DNA, 50 uM zinc acetate, 200 nM TF, 25 C, 1 h; high values mean tight binding). Details: protein: recombinant; tags: N-terminal polyhistidine and DsRed monomer fusion (pET32a); label: CyDye5-dUTP incorporated in the synthesized complementary strand; 3' TTTTT single-stranded linker to array surface; dsDNA, one strand shown.
Procedure, shortened: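 The binding signal is fluorescence intensity per feature, in arbitrary units, read on an Axon 4000B scanner. Polyhistidine- and DsRed-tagged transcription factors (N-terminal fusions) from E. coli BL21-CodonPlus were purified on Ni–NTA and applied at 200 nM for 1 h at 25 °C to a double-stranded, BSA-blocked custom Agilent array in buffer with 50 µM zinc acetate.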

Row | Sequence | binding signal
1 | ACAATGCCGTACTTAGAACCGAGCTACCGCCGTCGCCACCCGGAGTCACCTAGTGCAG | 8880 fluorescence intensity (a.u.)
2 | ATGATAGTTGAGGGACCCGTTGTATCTGGTTTTGGGGTTCCGGAGTCACCTAGTGCAG | 8400 fluorescence intensity (a.u.)
3 | AGAAACCCTCGCCTCGCCGCCGTCGACTCGACTCGTACCGCGGAGTCACCTAGTGCAG | 9020 fluorescence intensity (a.u.)
4 | TACTAATTTAAGTTTGTATTTTGGTTGGTTCAGATTTGCACGGAGTCACCTAGTGCAG | 9120 fluorescence intensity (a.u.)
5 | CATCACTGTTCTCCCGCCCTTTCTCTTCCTTTCCCCTGCCCGGAGTCACCTAGTGCAG | 8510 fluorescence intensity (a.u.)
6 | TCCGATGGAGTCCTATTTTTTTTCCACATAATACAATTAACGGAGTCACCTAGTGCAG | 8970 fluorescence intensity (a.u.)
7 | CTTGCATTTCTTTTATTATGTTTTACACCTCTCCTAAAATCGGAGTCACCTAGTGCAG | 9210 fluorescence intensity (a.u.)
8 | GCTTTGGATTGGGTCGAGGTGGGTAATTCGTCCGGTATTACGGAGTCACCTAGTGCAG | 15600 fluorescence intensity (a.u.)
9 | CTATCTTTCTCATCCGATTCCTATGTTTTTCCTGTGGTCCCGGAGTCACCTAGTGCAG | 8590 fluorescence intensity (a.u.)
10 | GCATCGTACCAACTGAGCAAGCAGCAAACGACTACTTTCTCGGAGTCACCTAGTGCAG | 8160 fluorescence intensity (a.u.)
11 | TCTTCGGTTTTTATAAATTGCCGCTTGATATTTTCTGATACGGAGTCACCTAGTGCAG | 9030 fluorescence intensity (a.u.)
12 | TGCATCGTTAATTTTTTATATGGTTTGCTAGTCAAACCCTCGGAGTCACCTAGTGCAG | 9200 fluorescence intensity (a.u.)
13 | TCTTTTGGACCATATTACCCCTATCTTCTCCATTCATCCCCGGAGTCACCTAGTGCAG | 10400 fluorescence intensity (a.u.)
14 | GTCTTATTTCTCCTCCCGTAGCAGGTACGCTAGATTATAGCGGAGTCACCTAGTGCAG | 9590 fluorescence intensity (a.u.)
15 | TATTTCCTGCGATTTTCTGTGGTTTGTTCTGGGCGGCACTCGGAGTCACCTAGTGCAG | 11000 fluorescence intensity (a.u.)
16 | TTCTTGCCATCCCGTCGCTCCCAATCTCCACCGAGGTAGGCGGAGTCACCTAGTGCAG | 8400 fluorescence intensity (a.u.)
17 | CCTCTACCTCCGCCGCACGTGCCGCATCTTCCGCCGCCTCCGGAGTCACCTAGTGCAG | 13000 fluorescence intensity (a.u.)
18 | GTGTGGTCTGTGGAGTGTATGGTTGATTTGGTTGGTAATTCGGAGTCACCTAGTGCAG | 10400 fluorescence intensity (a.u.)
19 | TGTGTAGTGTGGTTTGCTGCTTCGCTTCAATAATAGTAGTCGGAGTCACCTAGTGCAG | 9760 fluorescence intensity (a.u.)
20 | GGGCGTATTCCATCTCCGTCGTCCTGCATGCACCGCCCATCGGAGTCACCTAGTGCAG | 11200 fluorescence intensity (a.u.)
21 | CGCCGCCGATATCCGTCGTCCTAGCGTCGCCTTAATCCTCCGGAGTCACCTAGTGCAG | 8760 fluorescence intensity (a.u.)

Row | Sequence | binding signal
22 | GTCCTTATTCTTATTCCACGGTTGATTTCCTGAACTAACCCGGAGTCACCTAGTGCAG | 9270 fluorescence intensity (a.u.)
23 | TTTCGTCGTGACGAGTCACGTATCGCTACTTGCAAACTGCCGGAGTCACCTAGTGCAG | 8220 fluorescence intensity (a.u.)
24 | ACACAGCTTTTCTACTACATTTTCTTGGGTTTCTTGAATGCGGAGTCACCTAGTGCAG | 8680 fluorescence intensity (a.u.)
25 | CCCCTACAAGTACCTCTGACCGCTTCTTTAGCACATCAACCGGAGTCACCTAGTGCAG | 12500 fluorescence intensity (a.u.)
26 | TGTCTCTCTTTGACATCTTGTTTCCCATAACCTAAAGATACGGAGTCACCTAGTGCAG | 8260 fluorescence intensity (a.u.)
27 | AAATTTGTACCATCTTGTTGTCCATCATTCTTGACAAGAGCGGAGTCACCTAGTGCAG | 8080 fluorescence intensity (a.u.)
28 | GAGTTGGGTTGGAGTGGTTTGGATCGCTGCTTCACTAGGGCGGAGTCACCTAGTGCAG | 27400 fluorescence intensity (a.u.)
29 | TATAGATCCTCGTTCCAACATATACCCCAATACACTAATCCGGAGTCACCTAGTGCAG | 9810 fluorescence intensity (a.u.)
30 | GATTTAGTGAAGTGTATCTTTGACCACTTGATGGATTGTTCGGAGTCACCTAGTGCAG | 8360 fluorescence intensity (a.u.)
31 | AGTGAATAGCTCATTGTATCCTTTTTACTTGCAAGGCTTACGGAGTCACCTAGTGCAG | 11100 fluorescence intensity (a.u.)
32 | CCAGCTGTGTGTGTGCACGCGGTTTTCCAATCGATTCTTCCGGAGTCACCTAGTGCAG | 9270 fluorescence intensity (a.u.)
33 | CTGTTGGCTTTCAACATGAATTTGTTTTCCTTTGCACGGCCGGAGTCACCTAGTGCAG | 8720 fluorescence intensity (a.u.)
34 | TTTCCTGAGCTGCTGTCTCCCGTTCTCTTTCTGAGAGCAACGGAGTCACCTAGTGCAG | 8400 fluorescence intensity (a.u.)
35 | CTTTATACTGTATTTATACCTTTCCTATTGGTTTCAGATACGGAGTCACCTAGTGCAG | 8880 fluorescence intensity (a.u.)
36 | TTCTATTTTACCTCTCGTCTCTCTCCTCGCGGTCGCTTCTCGGAGTCACCTAGTGCAG | 12800 fluorescence intensity (a.u.)
37 | ACCAAAACGCCCTCTGCCTCGCAGGAGACCGGTCAACGCGCGGAGTCACCTAGTGCAG | 9010 fluorescence intensity (a.u.)
38 | AGGTGAGTTGGTTGGTGGGTGCAGATAGTGTTGGATGCAGCGGAGTCACCTAGTGCAG | 8200 fluorescence intensity (a.u.)
39 | CTTGCTCTCTCGTTTGCTCTTCTACTGCTCATCCTCCTCCCGGAGTCACCTAGTGCAG | 13700 fluorescence intensity (a.u.)
40 | CACATTTTTTCTTTATTTTTCGGCCTCATATTCAATTTTGCGGAGTCACCTAGTGCAG | 8810 fluorescence intensity (a.u.)
41 | TCTTTTTCTTCATTTTCGGTTGCTAGGTCACATTTGTCCTCGGAGTCACCTAGTGCAG | 10100 fluorescence intensity (a.u.)
42 | AACCCGATCACTTCCACGCCGCGCGATTGGTTGGCGAGCCCGGAGTCACCTAGTGCAG | 8800 fluorescence intensity (a.u.)

Reprinted at random: three records from the list.
Row | Sequence | binding signal
23 | TTTCGTCGTGACGAGTCACGTATCGCTACTTGCAAACTGCCGGAGTCACCTAGTGCAG | 8220 fluorescence intensity (a.u.)
38 | AGGTGAGTTGGTTGGTGGGTGCAGATAGTGTTGGATGCAGCGGAGTCACCTAGTGCAG | 8200 fluorescence intensity (a.u.)
25 | CCCCTACAAGTACCTCTGACCGCTTCTTTAGCACATCAACCGGAGTCACCTAGTGCAG | 12500 fluorescence intensity (a.u.)
